The source of these data is US20230340044A1.

By UniProt entry, the sequences of proteins in these tests, tags left out. Where a name states a change or a piece, a line headed by the entry shows the natural chain unless it says otherwise. Residues count along the entry.
UniProt Q9ULT6, residues 56-219: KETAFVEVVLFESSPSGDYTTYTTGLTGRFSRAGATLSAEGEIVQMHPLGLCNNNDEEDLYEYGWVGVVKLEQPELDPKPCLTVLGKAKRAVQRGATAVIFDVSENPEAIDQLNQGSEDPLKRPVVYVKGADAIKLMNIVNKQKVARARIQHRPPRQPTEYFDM
UniProt Q2MKA7: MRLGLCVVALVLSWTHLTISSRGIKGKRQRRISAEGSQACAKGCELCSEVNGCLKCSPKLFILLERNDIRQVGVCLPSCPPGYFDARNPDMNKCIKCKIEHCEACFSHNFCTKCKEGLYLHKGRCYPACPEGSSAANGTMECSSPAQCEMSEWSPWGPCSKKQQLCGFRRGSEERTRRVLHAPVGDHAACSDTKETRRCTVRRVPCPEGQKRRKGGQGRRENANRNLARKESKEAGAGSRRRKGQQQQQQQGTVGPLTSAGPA

Results are given in words; binding and its absence hold for the method and conditions named. Some entries that bind do so weakly or less than the wild type.

The target in test [1] is ZNRF3-Fc (#7994-RF, R&D Biosystems) (UniProt Q9ULT6). Briefly: ELISA, Rspo protein coated, ZNRF3-Fc in solution.
Test [2] has the same target. Briefly: ELISA, Rspo protein coated, ZNRF3-Fc in solution; reference for the comparison.

In the case of “Variant #009 (hRspo1 with deletion of residues 21-31; hRspo1 32-263) (from UniProt Q2MKA7 32-263) (ligand)”, the binding result in test [1] was “binds”. In the case of “Variant #047 (hRspo1 32-263 with 4 additional amino acid substitutions E49K, V50D, D68G, D85G) (from UniProt Q2MKA7 32-263) (ligand)”, in test [1], the binding entry is recorded as “binds”. As to “Variant #051 (hRspo1 32-263 with 9 additional amino acid substitutions E45L, E49K, V50D, K55R, D68G, D85G, N88A, H108K, N109D) (from UniProt Q2MKA7 32-263) (ligand)”, the binding result in test [1] is recorded as “binds”. As to “control Rspo1 (without mutation); original native Rspo1 (from UniProt Q2MKA7 21-263) (ligand)”, the binding entry in test [2] is on record as “binds”.
